PubChem BioAssay AID504791 | Drosophila RNAi Screening Center, 2011
The deposit covers about 23,000 reagents; below is an unselected part of those with a known target gene and a result. Over the whole deposit, 199 (0.86%) were called active. 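Plate-scaled ratios behind the calls are not deposited; printed light signals are raw; many rows marked increased or decreased are still called inactive.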 Names joined by + are all predicted targets of the reagent. Reagent sequences are not shown. The record does not give: the direction of the score.

- Test: 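Genes whose knock-down strengthens or weakens small-RNA reporter silencing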 (primary screen)
- Cells: Drosophila S2-derived reporter cells
- Knock-down reagent: long dsRNA against Drosophila genes, about 150-250 ng dsRNA per well (siRNA assay); about 80-120 ng (miRNA assay)
- Time to read-out: about 5 days (siRNA assay); about 4 days (miRNA assay)
- Challenge: copper sulfate induction of reporters: 25 µM (siRNA assay); 200 mM stated (miRNA assay), 1-2 days before reading
- Measured: 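Dual luciferase assay: Renilla to firefly signal ratio in each well, scaled to the mean ratio of its plate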
- Rule for the call: 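First-pass picks had plate-scaled ratios over 1.5 for the siRNA assay, over 1.6 for the miRNA assay, or under 0.6; two distinct dsRNAs had to score alike on retest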

no.	gene knocked down	amplicon	stable siRNA reporter change	miRNA reporter change	stable assay Renilla, run 1 (luminescence)	stable assay firefly, run 1 (luminescence)	outcome
1	ara (araucan)	DRSC11322			4959	2.97e5	inactive
2	ara (araucan)	DRSC22984			5047	3.93e5	inactive
3	Nxf3 (Nuclear export factor 3)	DRSC21749			9250	4.09e5	inactive
4	rnh1 (ribonuclease H1)	DRSC07673			6171	3.63e5	inactive
5	Sh (Shaker)	DRSC19214			3151	2.14e5	inactive
6	Sh (Shaker)	DRSC19220			6371	4.33e5	inactive
7	Sh (Shaker)	DRSC19785			5551	6.57e5	inactive
8	Sh (Shaker)	DRSC20055			5528	5.36e5	inactive
9	Sh (Shaker)	DRSC22567			5111	3.61e5	inactive
10	AP-2mu (Adaptor Protein complex 2, mu subunit)	DRSC14090	reporter ratio raised past the hit cutoff		33576	3.77e5	inactive
11	Flacc (Fl(2)d-associated complex component)	DRSC20040			8658	3.53e5	inactive
12	CG10321	DRSC04061			4939	5.08e5	inactive
13	ND-49L (NADH dehydrogenase (ubiquinone) 49 kDa subunit-like)	DRSC14437			8098	3.79e5	inactive
14	Tk (Tachykinin)	DRSC14954			4836	5.32e5	inactive
15	Tk (Tachykinin)	DRSC21972			9078	7.26e5	inactive
16	CG11583	DRSC08202			7592	3.45e5	inactive
17	RabX6	DRSC08223			5594	3.85e5	inactive
18	CycC (Cyclin C)	DRSC16619			6818	4.27e5	inactive
19	CG31157	DRSC21832			8053	5.79e5	inactive
20	Obp47b + CG7741	DRSC06330			6596	3.31e5	inactive
21	CG31957	DRSC00207			4344	2.87e5	inactive
22	CG6290	DRSC19979			6896	4.11e5	inactive
23	CG3246	DRSC00584			8628	4.35e5	inactive
24	CG5043	DRSC02805			7866	4.02e5	inactive
25	CG14770	DRSC17947			4700	3.57e5	inactive
26	Chrac-16 (Chromatin accessibility complex 16kD protein)	DRSC20343		reporter ratio lowered past the hit cutoff	6438	5.98e5	inactive
27	CG11262	DRSC09831			6607	4.47e5	inactive
28	krz (kurtz)	DRSC16979			7828	4.93e5	inactive
29	mtsh (mitoshell)	DRSC03070			7206	3.51e5	inactive
30	Obsc (Obscurin)	DRSC04301			2232	2.49e5	inactive
31	Obsc (Obscurin)	DRSC04302			7938	1.43e6	inactive
32	Obsc (Obscurin)	DRSC04303			5687	3.69e5	inactive
33	Obsc (Obscurin)	DRSC04430			6927	4.69e5	inactive
34	Obsc (Obscurin)	DRSC22422			5003	4.89e5	inactive
35	CG5033	DRSC07410			9291	3.40e5	inactive
36	CG13473	DRSC10017			7852	2.69e5	inactive
37	CG15366 (retired record)	DRSC18039			6207	5.26e5	inactive
38	eEF2 (eukaryotic translation elongation factor 2)	DRSC03737			4811	3.42e5	inactive
39	Acp53C14c (Accessory gland protein 53C14c)	DRSC05626			6192	3.68e5	inactive
40	His4:CG33883 + His4:CG33889 + His4:CG33899 + 20 more	DRSC21268			5211	4.56e5	inactive
41	CG12546	DRSC11676			8723	4.52e5	inactive
42	snoRNA:Me28S-C3420b + RpS11	DRSC07396			5523	3.42e5	inactive
43	Gmap (Golgi microtubule-associated protein)	DRSC19988			8130	5.46e5	inactive
44	Gmap (Golgi microtubule-associated protein)	DRSC20057			5628	4.70e5	inactive

Next part (6 carried over from the part before).
no.	gene knocked down	amplicon	stable siRNA reporter change	miRNA reporter change	stable assay Renilla, run 1 (luminescence)	stable assay firefly, run 1 (luminescence)	outcome
39	Acp53C14c (Accessory gland protein 53C14c)	DRSC05626			6192	3.68e5	inactive
40	His4:CG33883 + His4:CG33889 + His4:CG33899 + 20 more	DRSC21268			5211	4.56e5	inactive
41	CG12546	DRSC11676			8723	4.52e5	inactive
42	snoRNA:Me28S-C3420b + RpS11	DRSC07396			5523	3.42e5	inactive
43	Gmap (Golgi microtubule-associated protein)	DRSC19988			8130	5.46e5	inactive
44	Gmap (Golgi microtubule-associated protein)	DRSC20057			5628	4.70e5	inactive
45	Kots (Kotsubu)	DRSC16581			8334	5.28e5	inactive
46	CG12486 (retired record)	DRSC09888			8158	3.15e5	inactive
47	gek (genghis khan)	DRSC04688			44535	1.41e6	inactive
48	CG9393	DRSC16486			9040	5.12e5	inactive
49	Gdi (GDP dissociation inhibitor)	DRSC03330			33230	1.27e6	inactive
50	mh (maternal haploid)	DRSC20168			6144	4.54e5	inactive
51	CG13339	DRSC06373			6570	3.47e5	inactive
52	Arpc3B (Actin-related protein 2/3 complex, subunit 3B)	DRSC20126			2780	3.01e5	inactive
53	PIG-C (Phosphatidylinositol glycan anchor biosynthesis class C)	DRSC08241			5943	3.30e5	inactive
54	amos (absent MD neurons and olfactory sensilla)	DRSC03484			7693	5.74e5	inactive
55	CG15443	DRSC00455			9725	6.24e5	inactive
56	CG9459	DRSC16496			6215	3.94e5	inactive
57	CG15617	DRSC06570			7239	3.32e5	inactive
58	CG34429	DRSC10120			5352	4.12e5	inactive
59	CG8569	DRSC07214			7991	3.84e5	inactive
60	beta4GalNAcTB (beta1,4-N-acetylgalactosaminyltransferase B)	DRSC14869			6368	3.67e5	inactive
61	CG11638	DRSC18167			6675	4.00e5	inactive
62	CG11638	DRSC18640			6330	3.22e5	inactive
63	form3 (formin 3)	DRSC10195			5924	3.75e5	inactive
64	form3 (formin 3)	DRSC10297			8218	4.21e5	inactive
65	form3 (formin 3)	DRSC11024			5892	3.88e5	inactive
66	sqh (spaghetti squash)	DRSC18837			7875	3.26e5	inactive
67	Gpb5 (Glycoprotein hormone beta 5)	DRSC21241			4532	3.36e5	inactive
68	Sgs8 (Salivary gland secretion 8)	DRSC11282			6671	4.16e5	inactive
69	CG31224	DRSC15272			3900	3.90e5	inactive
70	CG31224	DRSC16290			8563	3.64e5	inactive
71	PGRP-SC2 (Peptidoglycan recognition protein SC2)	DRSC06481	reporter ratio raised past the hit cutoff		8815	3.06e5	inactive
72	CG30369	DRSC21996			8716	5.88e5	inactive
73	Ube4B (Ubiquitination factor E4B)	DRSC03277			80852	3.59e5	inactive
74	CG13850	DRSC14700			7394	3.69e5	inactive
75	kto (kohtalo)	DRSC10983			6859	2.62e5	inactive
76	Mcr (Macroglobulin complement-related)	DRSC03366			10637	7.71e5	inactive
77	CG8468	DRSC07190			7696	4.63e5	inactive
78	Dlip1 (Dorsal interacting protein 1)	DRSC18460			5852	4.67e5	inactive
79	CG30274	DRSC04171			6047	3.49e5	inactive
80	CkIIalpha-i1 (CKII-alpha subunit interactor-1)	DRSC11115			9898	4.01e5	inactive
81	CG33309	DRSC01421			5031	3.55e5	inactive
82	Cpsf100 (Cleavage and polyadenylation specificity factor 100)	DRSC14146			7334	6.26e5	inactive
83	Cpsf100 (Cleavage and polyadenylation specificity factor 100)	DRSC28396		reporter ratio lowered past the hit cutoff			inactive
